Measured values from PubChem BioAssay AID1347076 (National Center for Advancing Translational Sciences (NCATS), 2019).
“And” between values parts separate entries of the source, which are not always exact repeats. Equal values may be shown once. Out of some 400,000 compounds screened, about 13,000 (3.2%) were called active. Inconclusive results, whose numbers are uncertain, are shown with a selection of clear calls. Calls come from the whole dose curve; as a rule, active = well fitted cell-killing curve with a large enough effect; inconclusive = small, poorly fitted or top-dose-only effect, or effect the other way; inactive = flat fitted curve, though single readings scatter. Where the call is inconclusive, the potency comes from a doubtful curve fit.

Assay: qHTS assay for MDR1-selective chemotherapeutics: Primary screen using the drug-selected MDR subline cells KB-V1; note: nearly all actives have a fitted effect of over 60% in size
Details: KB-V1 MDR cells viability, CellTiter-Glo, 72 h; activity change, negative = cytotoxicity: at 46.1 µM (top of the series)
Outline: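 Cytotoxicity toward P-gp-expressing KB-V1 cells was determined as loss of CellTiter-Glo luminescence after 72 h at 37 degrees C. Compounds were tested in quantitative HTS format across a concentration range, with curves fitted to normalized data.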
% is set by controls: 0 for no effect and ±100 for the full control effect; potency is the fitted concentration of half-maximal effect.

SMILES	Potency	activity change, negative = cytotoxicity
COC(=O)c1cc(COc2ccc3oc(C)c(C(=O)OC)c3c2)c(C)o1	inconclusive: 20.6 µM [cytotoxic, single point]	
COCc1ccc(C(=O)Nc2cccc(S(=O)(=O)N(C)c3ccccc3)c2)cc1	inconclusive: 9.2 µM [cytotoxic, partial curve, poor fit]	
COc1cc2ccccc2cc1C(=O)Nc1ccc2oc(-c3ccc(F)cc3Cl)nc2c1	inactive	
COc1cccc(C(=O)Nc2c(C(=O)N3CCN(c4ccc(F)cc4)CC3)oc3ccccc23)c1	inconclusive: 1.16 µM [cytotoxic, full curve, poor fit]	
CCCCC(CC)C(=O)Nc1ccccc1C(=O)NC(C)C (stereo not drawn)	inconclusive: 32.6 µM [cytotoxic, single point]	
CC(=O)Nc1ccc(Oc2nc(-c3ccccn3)nc3ccccc23)cc1	inconclusive: 23.1 µM [cytotoxic, single point]	
CCOc1ccc(Br)cc1CN(CC)CC		inconclusive: 0%
COc1ccc(/C(O)=C2\C(=O)C(=O)N(c3cc(C)on3)C2c2ccccc2OC)cc1C (stereo not drawn)	inconclusive: 20.6 µM [cytotoxic, single point]	
CCOc1cc(/C=N/Nc2nc3ccccc3[nH]2)cc(Br)c1OCC(=O)N(C)C	inconclusive: 29.1 µM [cytotoxic, single point]	
COc1ccc2nc3n(c(=O)c2c1)-c1cc2ccccc2cc1C(=O)NC3Cc1ccc(O)cc1 (stereo not drawn)	inactive	
CCCCC1SC(N)=NC1=O (stereo not drawn)	inactive	
COc1ccc(C(=O)NCCc2nnc3ccc(SCC(=O)N4CCOCC4)nn23)cc1	inconclusive: 9.2 µM [rising, partial curve, poor fit]	
O=C(NCCn1ccc2ccccc21)c1ccc(Cl)cc1	inconclusive: 29.1 µM [rising, single point]	
CCOc1ccccc1CNC(=O)c1cc2oc3ccccc3c2n1C	inconclusive: 14.6 µM [cytotoxic, partial curve]	
COc1ccc(C=NNC(=O)c2ccccc2OCc2ccc(F)cc2)c(OC)c1	inactive	
CCCNC(=O)NC1CCCc2ccccc21 (stereo not drawn)	inconclusive: 4.61 µM [rising, full curve, poor fit]	
O=[N+]([O-])c1cc([N+](=O)[O-])c(Oc2cccc3ccccc23)cc1NN1CCCCC1		inconclusive: 12.9%
Cc1ccc(C(=O)C2=C(O)C(=O)N(Cc3ccco3)C2c2ccc(N(C)C)cc2)o1 (stereo not drawn)	inconclusive: 29.1 µM [cytotoxic, single point]	
COc1ccc2nc3oc(C(=O)NC4CCN(Cc5ccccc5)CC4)cc3cc2c1	inconclusive: 35.5 µM [cytotoxic, single point]	
CCOC(=O)C1=C(c2ccccc2)NC(SC)=C(C#N)C1c1ccco1 (stereo not drawn)	inconclusive: 25.9 µM [cytotoxic, single point]	
CC1CCC(NC(=O)CCS(=O)(=O)c2ccc3c(c2)oc(=O)n3C)CC1 (stereo not drawn)	inactive	
CCc1ccc(C(=O)c2cn(CC(=O)Nc3ccc4c(c3)OCO4)c3ccc(OC)cc3c2=O)cc1	inconclusive: 29.1 µM [rising, single point]	
CCC(NC(=O)c1ccccc1O)c1ccccc1 (stereo not drawn)	active: 16.4 µM	

SMILES	Potency	activity change, negative = cytotoxicity
COC(=O)[C@]1(CC(C)C)N[C@H](c2ccc(-c3cccc(Cl)c3)cc2)[C@@H]2C(=O)N(C)C(=O)[C@@H]21	inconclusive: 23.1 µM [cytotoxic, single point]	
COc1cccc(C(=O)NC2CCN(CC(=O)NCc3ccccc3F)CC2)c1	inconclusive: 23.1 µM [cytotoxic, single point]	
O=C(CCc1ccccc1)NNC(=S)NC(=O)c1ccccc1	inconclusive: 2.06 µM [cytotoxic, single point]	
OC(COc1ccc2cc(Br)ccc2c1)CN1CCN(c2ccccn2)CC1 (stereo not drawn)	inconclusive: 16.4 µM [cytotoxic, partial curve]	
Cc1cc(C)nc(N2CCCC(C(=O)NCc3cccs3)C2)n1 (stereo not drawn)	active: 16.4 µM	
Cc1cccc(NS(=O)(=O)c2ccc(S(=O)(=O)N3CCCC3)cc2)c1	inconclusive: 29.1 µM [cytotoxic, partial curve, poor fit]	
COc1cc2c(cc1OC)C1(NCC2)C(=O)Nc2ccccc21 (stereo not drawn)	inactive	
CCCCC(O)(CCCC)C(=O)NN(C(=O)OC)c1ccccc1	inactive	
COc1ccccc1N1CCN(C(=O)c2cccc3c(=O)c(C)c(-c4ccccc4)oc23)CC1	inactive	
COc1ccccc1N1C(=O)Cc2ccccc2C1=O	inactive	
NC(=O)c1ccc(-c2nnn(CC(=O)N(C3CCCC3)C3CCS(=O)(=O)C3)n2)cc1 (stereo not drawn)	inactive	
COc1ccc(/C(C)=N/NC(=O)c2cccc(S(=O)(=O)N3CCCC3)c2)c(O)c1	inconclusive: 3.26 µM [cytotoxic, full curve]	
O=C(CSc1ccc([N+](=O)[O-])cn1)Nc1cc(C(F)(F)F)ccc1N1CCOCC1	inconclusive: 18.4 µM [cytotoxic, partial curve, poor fit]	
CCOC(=O)c1ccc(NC(=O)CC2Sc3ncnn3C2=O)cc1 (stereo not drawn)	inactive	
Cc1c(N/C(=N/S(=O)(=O)c2ccccc2)c2ccc(Cl)cc2)c(=O)n(-c2ccccc2)n1C	active: 23.1 µM	
Cc1ccccc1OCc1ccc(-c2nc(C#N)c(NCc3cccnc3)o2)o1	inconclusive: 18.4 µM [cytotoxic, partial curve, poor fit]	
CC1CCCCN1C(=O)c1cc2nc(-c3ccccc3)cc(-c3ccccc3)n2n1 (stereo not drawn)	inconclusive: 29.1 µM [cytotoxic, single point]	
O=C(NCCOc1ccc(Cl)cc1)C(=O)NCC1CCCO1 (stereo not drawn)	inactive	
CCOC(=O)c1c(C)[nH]c(C(=O)CSc2nc(C)cc(C)n2)c1C	inconclusive: 5.8 µM [cytotoxic, partial curve, poor fit]	
CCOC(=O)N1CCC(NC(=O)C2CCN(c3nc(-c4ccc(OC)cc4)no3)CC2)CC1	inconclusive: 3.66 µM [cytotoxic, partial curve]	
Cc1ccccc1CN(C)C[C@@H]1OCc2cnnn2CCCC(=O)N([C@H](C)CO)C[C@H]1C	inactive	
Cn1c(=O)[nH]c(=O)c2c1nc(Br)n2Cc1ccccc1F	inconclusive: 22.4 µM [cytotoxic, partial curve, poor fit]	
OC(CSc1ccccc1Cl)CN1CCN(c2ccc(F)cc2)CC1 (stereo not drawn)	inconclusive: 9.2 µM [cytotoxic, partial curve]	

Single entries from above:
COc1ccc(/C(C)=N/NC(=O)c2cccc(S(=O)(=O)N3CCCC3)c2)c(O)c1 – Potency: inconclusive: 3.26 µM [cytotoxic, full curve]
CCOC(=O)c1c(C)[nH]c(C(=O)CSc2nc(C)cc(C)n2)c1C – Potency: inconclusive: 5.8 µM [cytotoxic, partial curve, poor fit]

Going on with the list.

SMILES	Potency	activity change, negative = cytotoxicity
O=C(/C=C/c1ccc(F)cc1)c1ccccc1Br	inconclusive: 20.6 µM [cytotoxic, single point]	
Cc1ccc(S(=O)(=O)Nc2c(C(=O)O)[nH]c3ccccc23)c(C)c1	inconclusive: 20.6 µM [rising, partial curve]	
CC(C)Oc1ccc2ccccc2c1CNC[C@H]1O[C@@H](n2ccc(=O)[nH]c2=O)[C@H](O)[C@@H]1O	inactive	
CN(C)CCCNc1cc(C(C)(C)C)nc2c(-c3ccc(Cl)cc3)cnn12	inconclusive: 18.4 µM [cytotoxic, partial curve, poor fit]	
CCOC(=O)C(C(=O)OCC)C(=O)c1cccc2ccc3ccccc3c12	inconclusive: 20.6 µM [cytotoxic, single point]	
CCOc1ccc(OCC)c(NC(=O)C2COc3ccccc3O2)c1 (stereo not drawn)	active: 20.6 µM	
ClCc1ncc(-c2ccc(Cl)cc2)o1	inactive	
Cc1nc(SCC(=O)NCC2CCCO2)c2c3c(sc2n1)CCCC3 (stereo not drawn)	inconclusive: 4.61 µM [cytotoxic, full curve]	
Cc1cc(C)n2nc(C(=O)NC3CCCc4ccccc43)nc2n1 (stereo not drawn)	inconclusive: 18.4 µM [cytotoxic, single point]	
CCOc1ccc(N2C(=O)C3ON(C)C(c4ccc([N+](=O)[O-])cc4)C3C2=O)cc1 (stereo not drawn)	inactive	
CCC(C(=O)Nc1sc(C(N)=O)c(C)c1C(=O)OC)c1ccccc1 (stereo not drawn)	inconclusive: 6.51 µM [cytotoxic, partial curve]	
C(=N\n1cnnc1)/c1ccc(-c2ccccc2)cc1	inconclusive: 5.17 µM [cytotoxic, full curve, poor fit]	
Cc1sc2ncnc(NCC(c3ccco3)N(C)C)c2c1C (stereo not drawn)	active: 18.4 µM	
CC1(C)OC(=O)C2(Cc3ccc(Cl)cc3N3CCCCC32)C(=O)O1 (stereo not drawn)	inactive	
CCCCOc1c(Cl)cc(C(=O)N2CCN(CC(=O)N3CCCC3)CC2)cc1OCC	inconclusive: 8.2 µM [cytotoxic, partial curve, poor fit]	
COc1ccc(CCNc2nc(N3CCCCC3)nc(N3CCCCC3)n2)cc1OC	inconclusive: 20.6 µM [cytotoxic, partial curve, poor fit]	
CCn1c(C)c(P(c2ccccc2)c2ccccc2)[n+]2ccccc12	inactive	
C=CCNCCCCOc1ccc(OCc2ccccc2)cc1	inactive	
CCOc1ccc(-c2nc(N)ncc2-c2ccc(OC)cc2)c(O)c1	active: 7.31 µM	
O=C1/C(=C\c2ccccc2)CCC/C1=C/c1ccccc1	inconclusive: 16.4 µM [cytotoxic, single point]	
Fc1ccc([C@@H]2CCNC[C@H]2COc2ccc3c(c2)OCO3)cc1	inconclusive: 25.9 µM [cytotoxic, single point] and inconclusive: 23.1 µM [cytotoxic, single point] and active: 23.1 µM	
Cc1ccccc1NC(=O)Cc1nc(COC(=O)CCNS(=O)(=O)c2ccccc2)cs1	inconclusive: 25.9 µM [rising, partial curve, poor fit]	
